Laboratory results: the M2OR odorant receptor database
Some of the results follow. The calls were merged from several studies; some rest on single wells.

Tests used:
Conditions in all cases: stereoisomer not certain
O13C5 = tested on: T1, O13C5
T1 sequence (whole entry): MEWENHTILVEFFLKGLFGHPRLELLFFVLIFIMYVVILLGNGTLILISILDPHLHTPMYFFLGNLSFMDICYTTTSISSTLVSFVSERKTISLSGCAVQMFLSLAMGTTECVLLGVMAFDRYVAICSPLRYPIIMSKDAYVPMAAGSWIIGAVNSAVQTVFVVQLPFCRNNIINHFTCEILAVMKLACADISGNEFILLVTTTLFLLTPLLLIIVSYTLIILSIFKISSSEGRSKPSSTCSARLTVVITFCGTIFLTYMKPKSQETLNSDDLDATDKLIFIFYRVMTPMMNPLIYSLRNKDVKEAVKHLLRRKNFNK
Outline: (§1)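 Each entry records the cell line, G-protein, co-transfected protein and tags used. Methods varied with the source, often transient luciferase assays in mammalian cell lines. A receptor–molecule pair is called responsive (active) if the original authors judged its signal statistically different from baseline and non-responsive (inactive) otherwise.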

O13C7 = tested on: T2, O13C7
T2 sequence (whole entry): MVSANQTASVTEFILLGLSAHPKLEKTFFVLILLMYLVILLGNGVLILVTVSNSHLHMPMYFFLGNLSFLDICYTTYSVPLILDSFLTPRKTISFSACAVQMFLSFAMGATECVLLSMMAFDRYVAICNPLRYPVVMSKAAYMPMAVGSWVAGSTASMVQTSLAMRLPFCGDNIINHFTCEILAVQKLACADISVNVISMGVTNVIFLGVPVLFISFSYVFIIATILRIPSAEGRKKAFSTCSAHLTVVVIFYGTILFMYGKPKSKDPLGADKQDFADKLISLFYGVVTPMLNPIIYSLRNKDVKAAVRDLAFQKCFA
Outline: as §1

O13C9 = tested on: T3, O13C9
T3 sequence (whole entry): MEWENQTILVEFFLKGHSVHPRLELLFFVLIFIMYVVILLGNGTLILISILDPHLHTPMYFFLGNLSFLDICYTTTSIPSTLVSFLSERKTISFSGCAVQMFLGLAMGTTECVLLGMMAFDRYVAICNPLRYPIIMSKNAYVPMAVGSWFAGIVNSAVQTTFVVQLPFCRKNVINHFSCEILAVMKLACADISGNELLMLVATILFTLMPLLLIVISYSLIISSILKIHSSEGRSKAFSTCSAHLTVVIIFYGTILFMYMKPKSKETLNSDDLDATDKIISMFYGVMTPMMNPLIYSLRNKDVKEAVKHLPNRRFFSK
Outline: as §1

O13D1 [1] = tested on: T4, O13D1
T4 sequence (whole entry): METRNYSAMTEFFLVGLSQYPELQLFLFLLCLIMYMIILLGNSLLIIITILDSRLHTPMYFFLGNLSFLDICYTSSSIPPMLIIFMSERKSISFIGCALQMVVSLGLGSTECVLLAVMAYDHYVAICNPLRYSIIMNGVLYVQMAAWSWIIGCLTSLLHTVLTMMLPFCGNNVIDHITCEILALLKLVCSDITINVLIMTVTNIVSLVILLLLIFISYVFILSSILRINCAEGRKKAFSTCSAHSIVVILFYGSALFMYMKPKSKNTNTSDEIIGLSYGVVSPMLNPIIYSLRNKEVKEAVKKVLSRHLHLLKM
Outline: as §1

O13D1 [2] = tested on: T5, O13D1; remark: listed apart in the source
T5 sequence (whole entry): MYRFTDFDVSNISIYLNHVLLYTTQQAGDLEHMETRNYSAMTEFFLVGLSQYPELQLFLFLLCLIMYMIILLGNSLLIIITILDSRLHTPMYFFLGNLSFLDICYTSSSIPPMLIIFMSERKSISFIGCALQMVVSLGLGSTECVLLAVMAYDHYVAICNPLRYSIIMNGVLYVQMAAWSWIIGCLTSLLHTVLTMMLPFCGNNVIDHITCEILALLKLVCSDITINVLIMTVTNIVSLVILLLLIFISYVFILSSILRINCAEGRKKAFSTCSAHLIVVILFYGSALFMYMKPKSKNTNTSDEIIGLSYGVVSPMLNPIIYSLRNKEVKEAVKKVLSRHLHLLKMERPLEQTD
Outline: as §1

O13F1 = tested on: T6, O13F1
T6 sequence (whole entry): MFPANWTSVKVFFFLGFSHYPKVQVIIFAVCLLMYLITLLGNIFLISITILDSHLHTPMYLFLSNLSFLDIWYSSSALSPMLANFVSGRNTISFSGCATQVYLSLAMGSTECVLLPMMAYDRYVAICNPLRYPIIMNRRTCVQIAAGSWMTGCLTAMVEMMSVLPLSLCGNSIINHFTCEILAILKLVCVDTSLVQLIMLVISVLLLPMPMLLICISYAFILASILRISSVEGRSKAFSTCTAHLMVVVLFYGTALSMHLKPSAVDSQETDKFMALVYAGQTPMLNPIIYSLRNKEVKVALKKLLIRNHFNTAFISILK
Outline: as §1

O13G1 = tested on: T7, O13G1
T7 sequence (whole entry): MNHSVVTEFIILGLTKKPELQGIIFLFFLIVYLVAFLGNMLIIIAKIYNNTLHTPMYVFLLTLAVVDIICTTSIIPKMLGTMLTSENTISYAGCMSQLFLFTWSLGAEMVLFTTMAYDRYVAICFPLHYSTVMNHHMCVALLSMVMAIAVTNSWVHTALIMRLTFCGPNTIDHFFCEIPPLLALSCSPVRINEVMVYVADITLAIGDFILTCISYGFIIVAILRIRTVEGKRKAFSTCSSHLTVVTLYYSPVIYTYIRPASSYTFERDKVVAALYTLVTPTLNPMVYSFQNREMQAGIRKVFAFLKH
Outline: as §1

O13J1 = tested on: T8, O13J1
T8 sequence (whole entry): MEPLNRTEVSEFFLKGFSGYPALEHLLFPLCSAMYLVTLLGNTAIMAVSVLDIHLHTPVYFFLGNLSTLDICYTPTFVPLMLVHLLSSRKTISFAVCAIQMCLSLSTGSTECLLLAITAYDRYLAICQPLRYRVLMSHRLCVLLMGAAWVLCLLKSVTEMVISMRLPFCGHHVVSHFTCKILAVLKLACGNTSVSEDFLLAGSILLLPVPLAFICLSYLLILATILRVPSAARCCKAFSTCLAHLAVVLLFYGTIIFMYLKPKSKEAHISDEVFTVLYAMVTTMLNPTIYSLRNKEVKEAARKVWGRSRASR
Outline: as §1

O14A2 = tested on: T9, O14A2
T9 sequence (whole entry): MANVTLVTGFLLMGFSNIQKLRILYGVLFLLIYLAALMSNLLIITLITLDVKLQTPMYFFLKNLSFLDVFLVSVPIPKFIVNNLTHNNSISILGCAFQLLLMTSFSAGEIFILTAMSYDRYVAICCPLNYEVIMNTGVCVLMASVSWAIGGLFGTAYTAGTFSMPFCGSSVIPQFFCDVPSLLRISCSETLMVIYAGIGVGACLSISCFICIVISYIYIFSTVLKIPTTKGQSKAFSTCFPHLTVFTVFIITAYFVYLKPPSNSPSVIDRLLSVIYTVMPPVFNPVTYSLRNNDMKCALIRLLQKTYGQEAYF
Outline: as §1

O14AG = tested on: T10, O14AG
T10 sequence (whole entry): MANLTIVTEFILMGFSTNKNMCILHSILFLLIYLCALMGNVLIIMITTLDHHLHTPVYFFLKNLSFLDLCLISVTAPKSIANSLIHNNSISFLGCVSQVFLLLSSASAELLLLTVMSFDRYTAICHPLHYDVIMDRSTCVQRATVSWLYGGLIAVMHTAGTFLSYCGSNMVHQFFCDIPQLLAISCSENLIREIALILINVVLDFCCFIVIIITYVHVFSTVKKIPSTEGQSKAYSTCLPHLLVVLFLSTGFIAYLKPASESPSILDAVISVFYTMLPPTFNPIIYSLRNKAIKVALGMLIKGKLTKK
Outline: as §1

O14CZ = tested on: T11, O14CZ
T11 sequence (whole entry): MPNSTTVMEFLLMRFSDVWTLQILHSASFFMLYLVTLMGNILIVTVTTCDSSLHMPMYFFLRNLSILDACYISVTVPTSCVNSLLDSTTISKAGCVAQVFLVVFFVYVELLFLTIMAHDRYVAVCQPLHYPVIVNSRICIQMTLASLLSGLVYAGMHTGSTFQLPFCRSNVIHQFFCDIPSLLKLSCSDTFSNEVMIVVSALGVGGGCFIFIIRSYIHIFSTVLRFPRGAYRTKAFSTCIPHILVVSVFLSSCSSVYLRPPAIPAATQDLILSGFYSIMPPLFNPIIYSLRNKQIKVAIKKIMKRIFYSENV
Outline: as §1

O14I1 = tested on: T12, O14I1
T12 sequence (whole entry): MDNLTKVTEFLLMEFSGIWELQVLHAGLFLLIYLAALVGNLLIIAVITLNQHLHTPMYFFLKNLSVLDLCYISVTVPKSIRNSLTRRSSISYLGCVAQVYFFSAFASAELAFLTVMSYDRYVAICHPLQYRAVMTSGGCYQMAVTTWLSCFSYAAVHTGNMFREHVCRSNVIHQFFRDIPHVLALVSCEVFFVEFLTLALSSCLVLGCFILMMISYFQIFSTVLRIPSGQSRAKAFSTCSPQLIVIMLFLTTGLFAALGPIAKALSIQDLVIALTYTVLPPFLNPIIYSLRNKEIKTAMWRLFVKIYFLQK
Outline: as §1

O14J1 = tested on: T13, O14J1
T13 sequence (whole entry): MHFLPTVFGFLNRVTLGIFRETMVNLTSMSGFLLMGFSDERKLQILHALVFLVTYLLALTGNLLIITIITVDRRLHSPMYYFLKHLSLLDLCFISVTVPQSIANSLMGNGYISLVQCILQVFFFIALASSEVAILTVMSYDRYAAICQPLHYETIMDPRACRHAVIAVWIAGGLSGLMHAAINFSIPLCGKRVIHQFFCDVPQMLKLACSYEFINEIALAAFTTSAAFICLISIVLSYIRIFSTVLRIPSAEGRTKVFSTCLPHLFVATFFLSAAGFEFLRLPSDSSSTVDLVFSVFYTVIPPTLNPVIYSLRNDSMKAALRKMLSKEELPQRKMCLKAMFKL
Outline: as §1

O14K1 = tested on: T14, O14K1
T14 sequence (whole entry): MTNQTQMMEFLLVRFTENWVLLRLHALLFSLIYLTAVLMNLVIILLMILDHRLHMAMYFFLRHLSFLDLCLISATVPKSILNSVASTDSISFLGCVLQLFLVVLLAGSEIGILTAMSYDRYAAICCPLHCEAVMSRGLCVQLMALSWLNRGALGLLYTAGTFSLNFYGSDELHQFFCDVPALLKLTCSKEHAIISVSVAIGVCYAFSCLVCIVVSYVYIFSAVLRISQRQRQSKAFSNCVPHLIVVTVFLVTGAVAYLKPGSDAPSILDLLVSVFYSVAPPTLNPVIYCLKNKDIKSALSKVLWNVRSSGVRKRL
Outline: as §1

Measured: odorant receptor agonist call

C=CCc1ccc(OC)c(OC)c1
inactive: all assays above

CC(C)C(=O)O
inactive: all assays above

CC1=CCC(C(C)(C)O)CC1 (stereo not drawn)
inactive: all assays above

CC(C)CCC(=O)O
inactive: all assays above

c1ccc(Oc2ccccc2)cc1
inactive: all assays above

Quoted at random: two compounds from above, in no set order.
CC1=CCC(C(C)(C)O)CC1 (stereo not drawn)
inactive: all assays above

CC(C)CCC(=O)O
inactive: all assays above

Following part

COc1cc(C=O)ccc1O
inactive: all assays above

CC=Cc1ccc(O)c(OC)c1
active: O14J1
inactive: all other assays above

CCCCCCCCOC(C)=O
inactive: all assays above

CCC1(O)C2(C)CCC(C2)C1(C)C (stereo not drawn)
inactive: all assays above

CCCCCC(C)=O
active: O14A2
inactive: all other assays above

CCCCCCOC(=O)CCC
inactive: all assays above

CCCCCCCCCC=O
inactive: all assays above
